Here are results for three substances from paper PMC9119628 (PLoS Pathogens, 2022).

Sequences of proteins named here, by UniProt entry; tags and fusion partners are left off. Residues count along the entry.
UniProt Q05318, residues 1-505: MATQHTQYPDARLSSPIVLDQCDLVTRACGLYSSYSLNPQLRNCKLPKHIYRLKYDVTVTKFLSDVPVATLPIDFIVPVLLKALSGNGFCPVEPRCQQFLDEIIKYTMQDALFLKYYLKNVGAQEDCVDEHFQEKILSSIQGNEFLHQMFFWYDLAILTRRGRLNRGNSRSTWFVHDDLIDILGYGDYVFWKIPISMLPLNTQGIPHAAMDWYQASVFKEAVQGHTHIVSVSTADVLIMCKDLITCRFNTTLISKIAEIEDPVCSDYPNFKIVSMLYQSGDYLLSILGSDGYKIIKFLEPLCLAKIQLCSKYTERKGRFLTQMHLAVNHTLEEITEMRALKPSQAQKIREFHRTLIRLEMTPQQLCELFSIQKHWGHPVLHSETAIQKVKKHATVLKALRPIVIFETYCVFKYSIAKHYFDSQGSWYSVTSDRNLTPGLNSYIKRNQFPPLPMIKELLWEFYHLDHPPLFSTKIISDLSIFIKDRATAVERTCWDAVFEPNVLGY
UniProt Q9C030: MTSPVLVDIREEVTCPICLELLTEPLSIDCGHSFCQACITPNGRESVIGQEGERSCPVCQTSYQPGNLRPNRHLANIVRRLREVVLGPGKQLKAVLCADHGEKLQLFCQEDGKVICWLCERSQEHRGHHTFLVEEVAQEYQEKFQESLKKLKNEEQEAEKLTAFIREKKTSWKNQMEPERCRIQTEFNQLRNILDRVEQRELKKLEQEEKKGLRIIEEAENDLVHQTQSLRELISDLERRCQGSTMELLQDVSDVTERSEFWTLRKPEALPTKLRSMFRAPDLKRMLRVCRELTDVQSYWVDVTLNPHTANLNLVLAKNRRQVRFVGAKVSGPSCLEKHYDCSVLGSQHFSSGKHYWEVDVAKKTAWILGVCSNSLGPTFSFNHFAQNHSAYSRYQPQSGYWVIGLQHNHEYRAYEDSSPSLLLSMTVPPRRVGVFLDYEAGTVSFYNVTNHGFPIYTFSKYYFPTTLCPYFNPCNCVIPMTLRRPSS
UniProt Q05127: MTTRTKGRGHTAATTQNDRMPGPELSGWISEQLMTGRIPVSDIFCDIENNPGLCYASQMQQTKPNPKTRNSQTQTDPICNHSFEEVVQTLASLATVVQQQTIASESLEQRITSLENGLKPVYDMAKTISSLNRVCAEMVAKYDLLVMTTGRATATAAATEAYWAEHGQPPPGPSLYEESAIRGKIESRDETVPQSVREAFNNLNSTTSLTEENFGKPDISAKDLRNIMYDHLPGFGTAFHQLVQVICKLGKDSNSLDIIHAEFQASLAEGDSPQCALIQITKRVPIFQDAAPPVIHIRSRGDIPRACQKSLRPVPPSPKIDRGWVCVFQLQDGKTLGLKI

These are yes or no findings as the source states them, for the method shown. In cells and extracts the contact can be indirect. Some entries that bind do so weakly or less than the wild type.

What all share (assay): co-IP
Assay [1] addresses HA-L_(1-505), HA-tagged N-terminal construct of EBOV L (Zaire ebolavirus (EBOV)) (UniProt Q05318).
For assay [2], the target named is HA-TRIM6 (UniProt Q9C030).
Assay [3] concerns the target FLAG-tagged EBOV VP35 wild type (Zaire ebolavirus (EBOV)) (UniProt Q05127).

Turning to “endogenous TRIM6 (from UniProt Q9C030 1-488) (enzyme)”, in assay [1], the binding entry is on record as “binds”. As to “untagged EBOV VP35 wild type (from UniProt Q05127 1-340)”, the binding entry in assay [2] and in assay [1] was “binds” throughout.

Regarding “FLAG-tagged EBOV VP35 wild type (from UniProt Q05127 1-340)”, the binding result in assay [3] is “binds”.
